Some of the results follow. The data scatter; read single values as rough.
Compound: ClCC(=O)N[C@H]1CCCc2ccccc12
Assay: log2 mean competition ratio of IA-DTB cysteine labelling (DMSO/compound) (log2 ratio); higher = stronger cysteine engagement by compound
Conditions: 50 µM; treatment time: 4 h; cell line lysate: HEK293T
Protocol: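 IA-DTB competitive cysteine chemoproteomics in HEK293T RIPA lysate. Lysates were treated with compound 29 or 30 at 50 or 200 µM for 4 h, then IA-DTB (500 µM, 1 h), trypsin-digested, NeutrAvidin-enriched and analysed by diaPASEF. Competition ratio = intensity DMSO / intensity compound (n=4 treated, n=64 DMSO); binding: mean log2 CR ≥ 1 and p ≤ 0.05 plus QC filters. Target is the cysteine site.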

Protein sequences, listed by entry. Tags and fused reporters are not part of them. Lines headed by an entry give the natural chain unless they say otherwise; changes in a name come on top. Residues count along the entry.
UniProt Q8TB52: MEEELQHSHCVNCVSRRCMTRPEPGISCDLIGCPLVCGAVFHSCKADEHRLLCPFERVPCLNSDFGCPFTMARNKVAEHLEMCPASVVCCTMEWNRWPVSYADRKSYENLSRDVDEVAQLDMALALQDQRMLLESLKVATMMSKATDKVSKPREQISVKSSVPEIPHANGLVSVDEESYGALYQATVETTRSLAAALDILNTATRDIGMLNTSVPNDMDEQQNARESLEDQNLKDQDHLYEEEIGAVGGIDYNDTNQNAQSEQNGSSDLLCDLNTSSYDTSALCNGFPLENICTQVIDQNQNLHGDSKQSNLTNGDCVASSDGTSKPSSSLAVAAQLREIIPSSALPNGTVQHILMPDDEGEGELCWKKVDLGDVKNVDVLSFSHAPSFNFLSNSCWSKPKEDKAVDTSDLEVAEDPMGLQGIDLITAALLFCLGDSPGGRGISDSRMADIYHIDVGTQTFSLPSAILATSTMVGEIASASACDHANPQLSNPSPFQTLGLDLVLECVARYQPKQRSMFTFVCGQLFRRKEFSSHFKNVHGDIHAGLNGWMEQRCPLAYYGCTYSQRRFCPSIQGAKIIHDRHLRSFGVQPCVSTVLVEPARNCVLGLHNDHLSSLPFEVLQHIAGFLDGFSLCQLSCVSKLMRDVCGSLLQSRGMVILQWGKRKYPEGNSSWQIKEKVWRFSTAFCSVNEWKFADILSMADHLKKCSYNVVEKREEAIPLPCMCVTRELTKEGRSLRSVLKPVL
UniProt Q06546: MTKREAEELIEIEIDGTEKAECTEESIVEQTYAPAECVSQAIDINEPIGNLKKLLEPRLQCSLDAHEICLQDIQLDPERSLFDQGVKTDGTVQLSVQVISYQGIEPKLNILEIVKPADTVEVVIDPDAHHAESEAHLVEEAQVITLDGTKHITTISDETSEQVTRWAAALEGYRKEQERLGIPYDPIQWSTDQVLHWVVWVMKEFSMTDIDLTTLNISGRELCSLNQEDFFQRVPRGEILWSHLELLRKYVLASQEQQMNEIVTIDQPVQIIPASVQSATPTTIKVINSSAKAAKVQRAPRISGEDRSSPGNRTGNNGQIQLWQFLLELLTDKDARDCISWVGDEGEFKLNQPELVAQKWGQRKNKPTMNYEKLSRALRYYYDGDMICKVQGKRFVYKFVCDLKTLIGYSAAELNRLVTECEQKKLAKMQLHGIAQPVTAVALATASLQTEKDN
UniProt Q9UET6, 262-281: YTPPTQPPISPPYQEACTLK
UniProt P06241: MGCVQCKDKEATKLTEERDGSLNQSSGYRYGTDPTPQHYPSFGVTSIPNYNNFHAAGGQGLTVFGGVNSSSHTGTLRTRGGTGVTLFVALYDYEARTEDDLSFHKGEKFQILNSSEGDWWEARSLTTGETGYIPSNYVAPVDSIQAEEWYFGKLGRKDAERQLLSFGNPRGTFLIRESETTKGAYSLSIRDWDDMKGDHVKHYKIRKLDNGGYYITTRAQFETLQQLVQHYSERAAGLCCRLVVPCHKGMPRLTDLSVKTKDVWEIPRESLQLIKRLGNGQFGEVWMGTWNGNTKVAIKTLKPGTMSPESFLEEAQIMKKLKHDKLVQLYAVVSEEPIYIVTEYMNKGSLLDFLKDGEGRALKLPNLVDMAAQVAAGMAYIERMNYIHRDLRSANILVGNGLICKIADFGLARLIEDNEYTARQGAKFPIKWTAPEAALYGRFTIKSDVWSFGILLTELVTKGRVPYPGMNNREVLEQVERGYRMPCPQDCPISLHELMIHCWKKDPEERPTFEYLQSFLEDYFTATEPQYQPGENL
UniProt Q05932: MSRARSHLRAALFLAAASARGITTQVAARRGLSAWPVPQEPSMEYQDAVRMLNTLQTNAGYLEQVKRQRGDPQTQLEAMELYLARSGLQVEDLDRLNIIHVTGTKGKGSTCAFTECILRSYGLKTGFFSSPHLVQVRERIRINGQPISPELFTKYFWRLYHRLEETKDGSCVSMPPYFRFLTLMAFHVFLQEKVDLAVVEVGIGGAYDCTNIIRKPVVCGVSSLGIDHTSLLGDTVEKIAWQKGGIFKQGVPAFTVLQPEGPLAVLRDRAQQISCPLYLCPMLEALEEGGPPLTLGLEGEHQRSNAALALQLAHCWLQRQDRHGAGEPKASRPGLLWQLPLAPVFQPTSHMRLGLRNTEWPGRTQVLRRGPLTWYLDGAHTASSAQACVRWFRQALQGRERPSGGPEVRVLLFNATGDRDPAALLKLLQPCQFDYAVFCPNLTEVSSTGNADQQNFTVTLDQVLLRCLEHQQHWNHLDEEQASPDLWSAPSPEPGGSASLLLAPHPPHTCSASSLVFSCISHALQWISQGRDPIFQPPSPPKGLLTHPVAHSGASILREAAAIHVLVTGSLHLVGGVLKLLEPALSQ
UniProt Q0JRZ9, 263-285: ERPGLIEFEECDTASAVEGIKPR
UniProt Q6PIJ6: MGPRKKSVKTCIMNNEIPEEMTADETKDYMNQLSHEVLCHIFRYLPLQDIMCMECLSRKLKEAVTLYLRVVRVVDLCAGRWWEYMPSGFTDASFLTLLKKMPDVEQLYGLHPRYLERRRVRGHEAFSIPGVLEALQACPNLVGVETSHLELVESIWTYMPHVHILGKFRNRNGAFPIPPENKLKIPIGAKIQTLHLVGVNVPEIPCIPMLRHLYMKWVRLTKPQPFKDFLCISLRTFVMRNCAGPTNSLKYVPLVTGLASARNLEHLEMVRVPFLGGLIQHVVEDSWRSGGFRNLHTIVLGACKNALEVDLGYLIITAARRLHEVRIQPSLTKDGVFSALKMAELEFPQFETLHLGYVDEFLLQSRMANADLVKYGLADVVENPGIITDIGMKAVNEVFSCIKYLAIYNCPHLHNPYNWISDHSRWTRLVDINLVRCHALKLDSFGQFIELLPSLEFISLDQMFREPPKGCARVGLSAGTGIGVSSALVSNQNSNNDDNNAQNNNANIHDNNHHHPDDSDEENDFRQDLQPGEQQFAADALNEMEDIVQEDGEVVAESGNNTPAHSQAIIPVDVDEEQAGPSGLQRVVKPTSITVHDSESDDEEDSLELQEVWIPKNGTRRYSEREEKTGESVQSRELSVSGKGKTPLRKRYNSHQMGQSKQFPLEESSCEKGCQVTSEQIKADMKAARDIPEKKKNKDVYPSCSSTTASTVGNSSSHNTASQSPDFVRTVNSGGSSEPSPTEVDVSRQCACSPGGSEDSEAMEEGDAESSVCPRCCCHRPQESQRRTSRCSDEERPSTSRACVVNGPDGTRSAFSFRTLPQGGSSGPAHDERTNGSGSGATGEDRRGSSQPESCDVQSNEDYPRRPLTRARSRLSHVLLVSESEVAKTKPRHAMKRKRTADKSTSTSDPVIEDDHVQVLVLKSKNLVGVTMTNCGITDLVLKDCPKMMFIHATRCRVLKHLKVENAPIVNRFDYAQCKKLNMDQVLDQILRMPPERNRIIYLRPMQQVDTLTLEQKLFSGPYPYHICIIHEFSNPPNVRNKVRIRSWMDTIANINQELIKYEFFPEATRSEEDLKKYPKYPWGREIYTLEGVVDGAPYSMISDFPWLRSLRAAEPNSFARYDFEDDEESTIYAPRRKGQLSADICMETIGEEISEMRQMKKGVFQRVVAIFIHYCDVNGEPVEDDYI
UniProt Q13045: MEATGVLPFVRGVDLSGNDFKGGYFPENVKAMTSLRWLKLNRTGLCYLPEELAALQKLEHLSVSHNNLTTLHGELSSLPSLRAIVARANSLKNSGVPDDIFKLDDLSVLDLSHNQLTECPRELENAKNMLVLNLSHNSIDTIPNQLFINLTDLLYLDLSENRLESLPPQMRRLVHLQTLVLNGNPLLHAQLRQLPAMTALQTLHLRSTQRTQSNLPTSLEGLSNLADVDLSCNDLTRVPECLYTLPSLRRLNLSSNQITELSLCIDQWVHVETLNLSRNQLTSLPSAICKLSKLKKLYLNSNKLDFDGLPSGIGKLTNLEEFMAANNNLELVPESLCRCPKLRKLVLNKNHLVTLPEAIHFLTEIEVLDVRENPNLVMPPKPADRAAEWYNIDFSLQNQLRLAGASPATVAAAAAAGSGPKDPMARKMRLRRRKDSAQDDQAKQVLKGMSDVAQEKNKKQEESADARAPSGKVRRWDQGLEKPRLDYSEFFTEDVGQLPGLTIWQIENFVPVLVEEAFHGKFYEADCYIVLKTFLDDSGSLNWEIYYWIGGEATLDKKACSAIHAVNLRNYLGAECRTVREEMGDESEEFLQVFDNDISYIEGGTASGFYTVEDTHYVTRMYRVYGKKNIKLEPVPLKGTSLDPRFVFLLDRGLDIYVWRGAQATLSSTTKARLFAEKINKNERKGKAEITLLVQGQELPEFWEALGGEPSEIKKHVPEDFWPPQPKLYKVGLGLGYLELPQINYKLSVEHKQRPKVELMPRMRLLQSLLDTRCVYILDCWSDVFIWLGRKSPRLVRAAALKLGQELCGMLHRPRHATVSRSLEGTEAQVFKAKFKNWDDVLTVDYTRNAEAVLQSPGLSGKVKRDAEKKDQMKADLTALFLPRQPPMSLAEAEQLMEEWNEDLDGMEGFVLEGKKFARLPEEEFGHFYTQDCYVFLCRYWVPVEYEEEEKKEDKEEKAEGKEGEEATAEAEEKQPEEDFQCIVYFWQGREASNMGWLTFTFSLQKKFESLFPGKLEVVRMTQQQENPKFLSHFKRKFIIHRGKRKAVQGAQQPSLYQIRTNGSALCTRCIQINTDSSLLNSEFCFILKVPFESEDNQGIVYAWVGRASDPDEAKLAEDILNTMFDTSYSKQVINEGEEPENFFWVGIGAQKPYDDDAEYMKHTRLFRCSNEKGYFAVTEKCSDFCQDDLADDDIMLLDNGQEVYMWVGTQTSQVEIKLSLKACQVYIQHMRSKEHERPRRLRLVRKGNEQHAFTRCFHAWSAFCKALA
UniProt O14976: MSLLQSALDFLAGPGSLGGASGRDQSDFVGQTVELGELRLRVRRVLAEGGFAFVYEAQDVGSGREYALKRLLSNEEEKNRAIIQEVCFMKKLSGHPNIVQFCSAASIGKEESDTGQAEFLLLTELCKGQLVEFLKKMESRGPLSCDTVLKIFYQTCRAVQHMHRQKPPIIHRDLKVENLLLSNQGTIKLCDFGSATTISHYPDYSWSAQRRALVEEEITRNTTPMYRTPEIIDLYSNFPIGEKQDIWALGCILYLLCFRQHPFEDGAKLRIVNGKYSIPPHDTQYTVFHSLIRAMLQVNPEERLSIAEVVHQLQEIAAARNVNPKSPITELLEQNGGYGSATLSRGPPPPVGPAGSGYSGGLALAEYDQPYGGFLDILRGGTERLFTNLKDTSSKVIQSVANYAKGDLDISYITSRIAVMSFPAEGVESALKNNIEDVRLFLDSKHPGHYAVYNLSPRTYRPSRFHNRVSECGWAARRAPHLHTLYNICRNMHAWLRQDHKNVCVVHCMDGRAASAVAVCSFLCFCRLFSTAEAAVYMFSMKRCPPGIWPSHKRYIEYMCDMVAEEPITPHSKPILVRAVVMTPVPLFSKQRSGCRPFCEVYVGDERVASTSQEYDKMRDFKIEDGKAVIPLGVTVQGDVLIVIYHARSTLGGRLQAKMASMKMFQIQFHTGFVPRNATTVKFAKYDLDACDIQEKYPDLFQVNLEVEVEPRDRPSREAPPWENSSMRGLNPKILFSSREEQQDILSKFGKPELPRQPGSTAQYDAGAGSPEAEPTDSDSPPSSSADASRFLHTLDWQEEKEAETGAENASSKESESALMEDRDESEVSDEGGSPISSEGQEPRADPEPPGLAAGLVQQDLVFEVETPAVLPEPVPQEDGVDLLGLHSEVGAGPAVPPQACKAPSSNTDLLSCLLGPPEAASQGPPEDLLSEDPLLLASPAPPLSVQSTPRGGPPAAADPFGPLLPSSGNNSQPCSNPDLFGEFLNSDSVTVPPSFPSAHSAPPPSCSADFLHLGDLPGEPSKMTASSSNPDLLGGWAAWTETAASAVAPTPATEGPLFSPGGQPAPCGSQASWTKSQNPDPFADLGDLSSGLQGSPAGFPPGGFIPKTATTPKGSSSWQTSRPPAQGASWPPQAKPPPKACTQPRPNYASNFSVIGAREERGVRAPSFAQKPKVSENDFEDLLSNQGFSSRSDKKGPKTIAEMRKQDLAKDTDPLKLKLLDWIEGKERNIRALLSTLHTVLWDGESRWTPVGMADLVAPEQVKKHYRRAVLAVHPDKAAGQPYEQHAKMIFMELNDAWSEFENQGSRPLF
UniProt Q13643: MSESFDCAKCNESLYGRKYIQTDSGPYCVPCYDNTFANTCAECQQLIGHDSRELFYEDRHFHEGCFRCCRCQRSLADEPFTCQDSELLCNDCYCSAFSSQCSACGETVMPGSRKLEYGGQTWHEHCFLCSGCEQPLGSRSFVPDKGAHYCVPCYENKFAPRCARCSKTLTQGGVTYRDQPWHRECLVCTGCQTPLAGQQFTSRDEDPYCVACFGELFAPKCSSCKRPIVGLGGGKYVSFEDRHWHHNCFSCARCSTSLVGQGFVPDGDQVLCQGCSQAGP

Target	log2 mean competition ratio
GAPVD1 C293 (UniProt Q14C86)	-0.0202
GART C291	0.388
GAMT C220 (UniProt Q14353)	0.383
FXYD6 C63	0.559
FBXO30 C592 (UniProt Q8TB52)	0.127
GABPA C338 (UniProt Q06546)	0.463
FOCAD C657 (UniProt Q5VW36)	-0.425
FASN C1227	-0.405
FTSJ1 C278 (UniProt Q9UET6)	0.407
FBXL19 C670 (UniProt Q6PCT2)	-0.184
FYN C404 (UniProt P06241)	-0.487
FPGS C171 (UniProt Q05932)	0.15
FCHO2 C273 (UniProt Q0JRZ9)	-0.445
FBXO38 C401 (UniProt Q6PIJ6)	0.224
FLII C46 (UniProt Q13045)	0.243
GAK C691 (UniProt O14976)	-0.139
FMNL3 C862 (UniProt Q8IVF7)	-0.264
FDXR C152 (UniProt P22570)	-0.14
FHL3 C10 (UniProt Q13643)	0.125
FUBP1 C132 (UniProt Q96AE4)	-0.212

Same assay, conditions: 200 µM; treatment time: 4 h; cell line lysate: HEK293T

Target	log2 mean competition ratio
GAPVD1 C293 (UniProt Q14C86)	-0.239
GART C291	0.315
GAMT C220 (UniProt Q14353)	-0.21
FXYD6 C63	-0.0968
FBXO30 C592 (UniProt Q8TB52)	0.297
GABPA C338 (UniProt Q06546)	-0.209
FOCAD C657 (UniProt Q5VW36)	-0.149
FASN C1227	-0.0443
FTSJ1 C278 (UniProt Q9UET6)	0.0302
FBXL19 C670 (UniProt Q6PCT2)	0.79
FYN C404 (UniProt P06241)	0.164
FPGS C171 (UniProt Q05932)	-0.0738
FCHO2 C273 (UniProt Q0JRZ9)	-0.162
FBXO38 C401 (UniProt Q6PIJ6)	-0.309
FLII C46 (UniProt Q13045)	-0.00168
GAK C691 (UniProt O14976)	-0.132
FMNL3 C862 (UniProt Q8IVF7)	0.00798
FDXR C152 (UniProt P22570)	0.049
FHL3 C10 (UniProt Q13643)	0.0198
FUBP1 C132 (UniProt Q96AE4)	0.14

Source: the supplement of paper PMC11732987, “Enantioselective OTUD7B fragment discovery through chemoproteomics screening and high-throughput optimisation” (Communications Chemistry, 2025)
